Experimental data from patent US11331288B2, “Conditioning irradiated tissue for increasing vascularity” (THE BOARD OF TRUSTEES OF THE LELAND STANFORD JUNIOR …, priority 2017, dated 2022).
At least one compound was matched to its structure with a doubt left.

How the values were obtained:
[1] = tested on: inguinal fat pads transplanted to parascapular subcutaneous pockets; settings: serial injections of 300 mg DFO, after two months; cited from earlier work
irradiated scalp skin [2] = assay: Collagen content of irradiated skin, picrosirius red staining; type: in vivo, mice; settings: after DFO treatment, before fat grafting; versus saline
irradiated scalp skin [3] = assay: CD31 immunofluorescent staining of scalp skin biopsies (vascularity); type: in vivo, mice
irradiated scalp = assay: Laser Doppler analysis of perfusion of irradiated scalp, DFO injected beneath the dermis (Example 1); type: in vivo, mice; settings: treatments 5 to 7, after the first four treatments
Description: Adult 60-day-old male Crl:NU-Fox1^NU immunocompromised mice were used for experiments in this study. Twelve mice were treated with a total of 30 Gy external beam radiation, delivered as six fractionated doses of 5 Gy each over 12 days, followed by 5 weeks of recovery. An additional six non-irradiated mice were used as healthy controls for laser Doppler analysis (LDA) and skin analysis. Irradiated mice were divided into two treatment groups: a DFO experimental group and saline control group. Following recovery, mice underwent injection of either DFO (1 mg in 100 μl saline) or 100 μl of saline alone beneath the dermis every other day for a total of seven treatments.
After irradiation, fat grafting was performed on the irradiated mice. After informed consent was obtained, lipoaspirate was obtained from three healthy female donors, with no other medical co-morbidities under an approved IRB protocol #2188. Lipoaspirate was allowed to settle for 15 minutes for layers to separate by gravity sedimentation, and then oil and blood layers were removed by vacuum aspiration. The remaining fat layer was centrifuged at 1300 rcf for 3 minutes at 4° C. Any remaining oil and blood was again removed and the remaining fat was transferred into 1 cc syringes for injection through a 14-gauge needle. […]
Five images were taken of each mouse, and the average LDPI of the five images was recorded. […]

CC(=O)N(O)CCCCCNC(=O)CCC(=O)N(O)CCCCCNC(=O)CCC(=O)N(O)CCCCCN [DFO, Deferoxamine]
fat graft weight [1]: significantly greater weight measurements | collagen content of irradiated skin (picrosirius red) (irradiated scalp skin [2]): slight decrease in collagen content which was not statistically significant | CD31 staining following fat grafting (irradiated scalp skin [3]; 8 weeks after fat grafting, DFO preconditioned relative to saline control fat grafted mice, difference not significant): slightly more CD31 staining | vascularity by CD31 staining of irradiated skin (irradiated scalp skin [3]; after DFO treatment, before fat grafting, versus saline, did not reach healthy skin levels): increased CD31 staining | change in perfusion (LDPI) with three additional DFO treatments (irradiated scalp): did not result in any significant increase to perfusion
